# Assay results: PubChem BioAssay AID540276 (National Center for Advancing Translational Sciences (NCATS), 2011)
# Among all 300,000 compounds or so, about 5,400 (1.8%) were called active. Inconclusive results, whose numbers are uncertain, are shown with a selection of clear calls. Calls come from the whole dose curve; tested in HEK293 cells. Potencies of inconclusive entries are doubtful fits and often do not repeat.
# Assay: qHTS for inhibitors of binding or entry into cells for Marburg Virus
# Conditions: Marburg virus pseudotyped entry inhibition, cell reporter; series mostly up to 37.8 µM
# Potency is the fitted concentration of half-maximal effect.
row,Compound,Potency
1,CC#CP(=O)(OC)C(O)(CF)c1ccccc1 (configuration not stated),"inconclusive: 3.55 µM [inhibitor, partial curve, poor fit]"
2,COc1cc(/C=C(/C#N)c2ccc(F)cc2)ccc1OCc1ccc(C(=O)O)o1,inactive
3,Cc1ccc(-c2noc(CN(C(=O)Cc3ccccc3)C(C)C)n2)cc1,"inconclusive: 29.1 µM [inhibitor, single point]"
4,c1ccc2sc(SCc3ccc(-c4nnco4)cc3)nc2c1,"inconclusive: 22.4 µM [inhibitor, single point]"
5,COc1ccc(CCNC(=O)c2nnn(CC(=O)Nc3ccccc3)c2N)cc1OC,inactive
6,COc1ccc(-c2cc(-c3ccc(F)cc3)nc3c2COc2ccc(F)cc2-3)cc1,"inconclusive: 5.62 µM [inhibitor, partial curve, poor fit]"
7,Cc1cc(/C=C(\C#N)c2nc3ccccc3[nH]2)c(C)n1C,"inconclusive: 16.4 µM [inhibitor, single point]"
8,Cc1cccc(S(=O)(=O)N2CN(Cc3ccco3)c3nc4ccccc4nc32)c1,inactive
9,COC(=O)CN(Cc1ccco1)S(=O)(=O)c1ccccc1,"inconclusive: 23.1 µM [activator, single point]"
10,Cc1cc(C)cc(N(C(=O)C2CCCC2)C2C=CS(=O)(=O)C2)c1 (configuration not stated),inactive
11,CCn1cc2nc(SCC(=O)Nc3ccc(OC)c(OC)c3)n(Cc3ccc(Cl)cc3)c(=O)c2n1,inactive
12,COc1ccc(Cl)cc1N(C(C)C(=O)O)S(C)(=O)=O (configuration not stated),"inconclusive: 0.0146 µM [activator, full curve, poor fit]"
13,O=C(NCCO)C1COc2ccccc2O1 (configuration not stated),"inconclusive: 5.62 µM [inhibitor, single point]"
14,N#Cc1cccc(NC(=O)Cn2cnc(S(=O)(=O)N3CCCCC3)c2)c1,inactive
15,COc1ccc2c(c1)CCc1c(C(=O)N3CCOCC3)noc1-2,"inconclusive: 3.26 µM [activator, single point]"
16,CC1(C)CC(=O)C2=C(C1)N1C(=C(C#N)C2c2ccccc2Cl)N=C(N)c2ccccc21 (configuration not stated),"inconclusive: 16.4 µM [inhibitor, single point]"
17,O=C(Nc1ccccc1)Nc1cccc(Cl)c1Cl,"inconclusive: 35.5 µM [inhibitor, single point]"
18,CCOC(=O)c1ccccc1NC(=O)COc1coc(CN2CCc3ccccc32)cc1=O,"inconclusive: 10 µM [inhibitor, partial curve]"
19,Cc1cc(N2CCC(C(=O)Nc3ccc(F)cc3)CC2)nc(-c2ccccc2)n1,"inconclusive: 35.5 µM [inhibitor, single point]"
20,Cc1cccc(-c2cc3nc(-c4ccccc4)cc(=O)n3[nH]2)c1,"inconclusive: 0.891 µM [activator, partial curve, poor fit]"
21,O=C1NC(=S)NC(=O)C1=Cc1ccccc1C(=O)O,inactive

# Nine of these compounds, reformatted:
row	Compound	Potency
8	Cc1cccc(S(=O)(=O)N2CN(Cc3ccco3)c3nc4ccccc4nc32)c1	inactive
9	COC(=O)CN(Cc1ccco1)S(=O)(=O)c1ccccc1	inconclusive: 23.1 µM [activator, single point]
10	Cc1cc(C)cc(N(C(=O)C2CCCC2)C2C=CS(=O)(=O)C2)c1 (configuration not stated)	inactive
11	CCn1cc2nc(SCC(=O)Nc3ccc(OC)c(OC)c3)n(Cc3ccc(Cl)cc3)c(=O)c2n1	inactive
12	COc1ccc(Cl)cc1N(C(C)C(=O)O)S(C)(=O)=O (configuration not stated)	inconclusive: 0.0146 µM [activator, full curve, poor fit]
13	O=C(NCCO)C1COc2ccccc2O1 (configuration not stated)	inconclusive: 5.62 µM [inhibitor, single point]
14	N#Cc1cccc(NC(=O)Cn2cnc(S(=O)(=O)N3CCCCC3)c2)c1	inactive
15	COc1ccc2c(c1)CCc1c(C(=O)N3CCOCC3)noc1-2	inconclusive: 3.26 µM [activator, single point]
16	CC1(C)CC(=O)C2=C(C1)N1C(=C(C#N)C2c2ccccc2Cl)N=C(N)c2ccccc21 (configuration not stated)	inconclusive: 16.4 µM [inhibitor, single point]

# Carrying on.

row,Compound,Potency
1,CCCCOC(=O)Nc1ccc2c(C)cc(=O)oc2c1,"inconclusive: 32.6 µM [inhibitor, single point]"
2,O=C(O)c1cccc(Nc2nc(-c3cc4ccccc4oc3=O)cs2)c1,"inconclusive: 35.5 µM [inhibitor, single point]"
3,O=C(C1CCCN(S(=O)(=O)c2ccc(F)cc2)C1)N(Cc1cccs1)C1CC1 (configuration not stated),"inconclusive: 10 µM [inhibitor, partial curve]"
4,COc1ccc(OCCSc2nnc(CC(=O)Nc3cccc(Cl)c3Cl)n2C)cc1,"inconclusive: 5.17 µM [inhibitor, full curve, poor fit]"
5,CCCN1C2=NS(=O)(=O)CCN2c2ccccc21,"inconclusive: 35.5 µM [inhibitor, single point]"
6,CCOC(=O)c1cn(-c2ccccc2)nc1-c1ccncc1,inactive
7,c1ccc2c(c1)Cc1cc3ccccc3nc1-2,"inconclusive: 35.5 µM [inhibitor, single point]"
8,COc1ccc(N2C(=O)c3ccc(C(=O)Nc4ccc(NC(C)=O)cc4)cc3C2=O)cc1,inactive
9,Cc1cccc(NC(=O)c2c([N+](=O)[O-])c(C(C)(C)C)nn2C)c1,"inconclusive: 6.31 µM [inhibitor, single point]"
10,O=C(Nc1ccccn1)c1ccc2c(c1)OCCO2,"inconclusive: 1.78 µM [inhibitor, partial curve, poor fit]"
11,CCOC(=O)CCCNC(=O)N1CCc2nc(-c3ccc(OC)cc3C)c3c(c2C1)CO[C@@H](c1ccccc1)C3,inactive
12,CC1CCCCC1NC(=O)COC(=O)c1ccc2ccccc2n1 (configuration not stated),"inconclusive: 10 µM [activator, partial curve, poor fit]"
13,O=C(CCl)NN1C(=O)NC(c2ccccc2)(c2ccccc2)C1=O,"inconclusive: 17.8 µM [inhibitor, partial curve, poor fit]"
14,COC(=O)c1c(Cl)c2n3ccccc3c(C)c(-c3ccccc3)c-2c1C(=O)OC,"inconclusive: 35.5 µM [inhibitor, single point]"
15,O=C(CSc1nc(=O)n(CCCN2CCOCC2)c2c1CCC2)Nc1ccc(F)cc1F,"inconclusive: 1.41 µM [inhibitor, single point]"
16,COC(=O)c1ccc(SCC(=O)NCc2ccccc2)c([N+](=O)[O-])c1,inactive
17,CCSc1nnc([C@H](Cc2c[nH]c3ccccc23)NC(=O)OC(C)(C)C)o1,"inconclusive: 32.6 µM [inhibitor, partial curve, poor fit]"
18,COc1cc(/C=C/C(=O)OCC(=O)c2ccc[nH]2)cc(OC)c1OC,"inconclusive: 11.2 µM [activator, single point]"
19,O=C(CSc1nncn1-c1cccnc1)Nc1cccc([N+](=O)[O-])c1,"inconclusive: 31.6 µM [activator, single point]"
20,COC(=O)C1=C(C)N(CC2CC2)C(=O)NC1CCc1ccccc1 (configuration not stated),"inconclusive: 0.0133 µM [activator, full curve, poor fit]"
21,CC(NC(=O)c1ccccc1)c1nnc(SCc2nc3ccccc3c(=O)[nH]2)n1C (configuration not stated),"inconclusive: 23.1 µM [inhibitor, partial curve, poor fit]"
